From patent US20250195488A1, “MEDICINE CONTAINING VITAMIN D DERIVATIVE OR PHARMACEUTICALLY ACCEPTABLE SALT OR SOLVATE THEREOF, USED IN COMBINATION WITH IMMUNOMODULATORY SUBSTANCE” (TEEJIN PHARMA LIMITED, priority 2022, published 2025)

Tested on: rat oligodendrocyte progenitor cells
Experiment: Promotive activity of rat oligodendrocyte progenitor cell differentiation-2 (immunostaining of MBP)
Format: cell-based
Settings: t-test vs DMSO group
Description: The promotive activity of oligodendrocyte progenitor cell (OPC) differentiation of the vitamin D derivatives was evaluated by immunostaining of MBP.
Subsequently, oligodendrocyte progenitor cell separation medium was added to the flask, and the mixture was similarly shaken for about 22 hours (37° C., 200 rpm), and the supernatant was collected to prepare oligodendrocyte progenitor cells.

With COC(C)(C)[C@H]1CCCN1C[C@@H](C)[C@H]1CC[C@H]2/C(=C/C=C3C[C@@H](O)C[C@H](O)C3)CCC[C@]12C [Compound G015, (1R,3R)-5-(2-((1R,3aS,7aR,E)-1-((S)-1-((R)-2-(2-methoxypropan-2-yl)pyrrolidin-1-yl)propan-2-yl)-7a-methyloctahydro-4H-inden-4-ylidene)ethylidene)cyclohexane-1,3-diol] the Significant difference (Test 6) was “**** (<0.0001)”.
C=C1/C(=C\C=C2/CCC[C@]3(C)[C@@H]([C@H](C)CN4CCCCC4(C)C)CC[C@@H]23)C[C@@H](O)C[C@@H]1O [Compound F003, (1R,3S,Z)-5-(2-((1R,3aS,7aR,E)-1-((S)-1-(2,2-dimethylpiperidin-1-yl)propan-2-yl)-7a-methyloctahydro-4H-inden-4-ylidene)ethylidene)-4-methylenecyclohexane-1,3-diol] was tested, and the Significant difference (Test 7) was “** (<0.01)”.
For C=C1[C@H](O)CC(=C/C=C2\CCC[C@]3(C)[C@@H]([C@H](C)CN4CCC[C@H]4C(C)(C)O)CC[C@@H]23)C[C@H]1O [Compound H014, (1R,3R)-5-(2-((1R,3aS,7aR,E)-1-((S)-1-((S)-2-(2-hydroxypropan-2-yl)pyrrolidin-1-yl)propan-2-yl)-7a-methyloctahydro-4H-inden-4-ylidene)ethylidene)-2-methylenecyclohexane-1,3-diol], the Significant difference (Test 8) was “**** (<0.0001)”.

No dose or concentration is given here for some results.
